## Screening data, single-dose tests

Protein sequences, listed by entry. Tags and fused reporters are not part of them. Residues count along the entry.
UniProt A4I591, 1-473: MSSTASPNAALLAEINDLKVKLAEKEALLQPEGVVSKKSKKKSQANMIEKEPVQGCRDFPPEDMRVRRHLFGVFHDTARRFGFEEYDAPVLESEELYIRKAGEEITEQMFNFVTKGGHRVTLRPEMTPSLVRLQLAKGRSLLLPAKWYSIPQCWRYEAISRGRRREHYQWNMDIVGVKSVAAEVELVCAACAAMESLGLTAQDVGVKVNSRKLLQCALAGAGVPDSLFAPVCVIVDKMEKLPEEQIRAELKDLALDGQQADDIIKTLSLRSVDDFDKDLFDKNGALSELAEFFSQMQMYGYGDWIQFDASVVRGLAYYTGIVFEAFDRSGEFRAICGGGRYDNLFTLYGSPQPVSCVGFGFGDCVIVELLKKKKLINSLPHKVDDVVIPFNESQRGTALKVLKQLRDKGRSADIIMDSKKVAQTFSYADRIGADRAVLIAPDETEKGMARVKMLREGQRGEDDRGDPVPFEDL
UniProt Q8IDJ8, 1-583: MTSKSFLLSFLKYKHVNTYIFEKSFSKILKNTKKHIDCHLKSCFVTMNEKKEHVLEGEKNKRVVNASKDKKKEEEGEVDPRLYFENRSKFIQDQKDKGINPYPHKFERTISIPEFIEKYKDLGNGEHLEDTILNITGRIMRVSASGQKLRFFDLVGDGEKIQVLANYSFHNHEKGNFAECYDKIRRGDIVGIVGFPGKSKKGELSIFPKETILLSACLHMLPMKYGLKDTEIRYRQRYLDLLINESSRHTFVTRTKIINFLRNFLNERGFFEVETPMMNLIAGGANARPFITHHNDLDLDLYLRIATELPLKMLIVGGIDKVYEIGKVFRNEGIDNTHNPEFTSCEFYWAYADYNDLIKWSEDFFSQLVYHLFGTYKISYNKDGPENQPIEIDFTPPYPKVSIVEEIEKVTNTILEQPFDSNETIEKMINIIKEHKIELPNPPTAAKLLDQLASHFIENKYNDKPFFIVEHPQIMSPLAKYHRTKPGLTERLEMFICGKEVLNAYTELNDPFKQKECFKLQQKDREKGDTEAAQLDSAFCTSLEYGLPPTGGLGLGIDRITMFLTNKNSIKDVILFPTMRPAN
UniProt Q4DA54, 1-478: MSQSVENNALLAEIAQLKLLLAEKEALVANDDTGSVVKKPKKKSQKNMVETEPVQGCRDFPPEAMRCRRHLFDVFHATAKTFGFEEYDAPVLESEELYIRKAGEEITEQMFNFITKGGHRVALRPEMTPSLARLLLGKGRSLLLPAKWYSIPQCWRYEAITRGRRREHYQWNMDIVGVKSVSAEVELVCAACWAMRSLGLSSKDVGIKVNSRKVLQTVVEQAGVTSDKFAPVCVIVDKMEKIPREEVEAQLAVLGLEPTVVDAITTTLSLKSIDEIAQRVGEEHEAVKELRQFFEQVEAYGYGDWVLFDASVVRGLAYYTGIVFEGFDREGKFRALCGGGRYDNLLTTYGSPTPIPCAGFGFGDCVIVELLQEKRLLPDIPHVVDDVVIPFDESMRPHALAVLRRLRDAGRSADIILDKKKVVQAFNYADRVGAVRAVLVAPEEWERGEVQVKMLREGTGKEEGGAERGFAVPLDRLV

Measurements from “University of Dundee, Small-Polar-MMV Screening Library” (2021), ChEMBL document CHEMBL3988442.

Results are given as percent effect. The record does not define 0% and 100%; most values in the screen are far below 50% and negative numbers occur (in some assays of this library far below -100). Compounds were drawn at random from those tested, without regard to their results.

LiHisRS: 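Enzyme assay of histidyl-tRNA synthetase; the read-out is not stated. Target: Histidine-tRNA ligase, Leishmania infantum (UniProt A4I591). Tested at 30 µM. The record gives no direction; compounds that gave an IC50 in retests scored well above the rest, so higher reads as stronger inhibition. The assay is labelled LdHisRS but filed under L. infantum. Of about 69,000 compounds tested this way, about 410 (0.6%) reached 50% or more in at least one test.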
PfKRS1: 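Enzyme assay of the cytosolic lysyl-tRNA synthetase in 384-well plates, read by luminescence. Target: Lysine-tRNA ligase, Plasmodium falciparum 3D7 (UniProt Q8IDJ8). Compounds at 30 µM. Direction is inferred from only a few compounds that gave an IC50; most scored high, so higher reads as stronger inhibition. About 69,000 compounds were tested under these conditions; 0.071% (about 49) showed 50% or more at least once.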
TcHisRS: 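Histidine-tRNA ligase, Trypanosoma cruzi CL Brener (UniProt Q4DA54). Enzyme assay of histidyl-tRNA synthetase; the read-out is not stated. Concentration: 30 µM. Higher reads as stronger inhibition (inferred: compounds with an IC50 in retests scored well above the rest). Size under these conditions: about 69,000 compounds, about 31 of them at 50% or above in at least one test.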

| SMILES | LiHisRS | PfKRS1 | TcHisRS |
|---|---|---|---|
| `COc1cc(F)ccc1N1CCN(Cc2nc(C)c(C)o2)CC1` | 15.83 | 4.92 | 9.211 |
| `Cc1cnn(CC2CN(c3ncnc4[nH]ccc34)CCO2)c1` (configuration not stated) | 7.826 | 0.1009 | 5.634 |
| `O=C(COc1coc(CN2CCOCC2)cc1=O)c1ccc(Cl)cc1` | 8.571 | 5.235 | 0 |
| `Cc1ccc(CNC(=O)CN2CCN(CC(O)c3ccco3)CC2)cc1` (configuration not stated) | 24.27 | 4.161 | 5.435 |
| `CC(C)Nc1ncnc2c1CCN(C(=O)CC1CCCC1)CC2` | 19.27 | 5.266 | 9.244 |
| `CC(C)c1nccn1-c1cncc(C2CCCN(C3CCCC3)C2)n1` (configuration not stated) | 7.246 | 2.458 | 3.297 |
| `NC(=O)N1CCCC(C(=O)N2CCN(c3nsc4ccccc34)CC2)C1` (configuration not stated) | 16.78 | 6.706 | 4.478 |
| `Cc1ccc(C)c(OCc2cc(C(=O)N(C)Cc3cnn(C)c3)no2)c1` | 7.292 | 1.646 | 7.821 |
| `O=C(NCC1CC1)[C@@H]1CCO[C@@H]2CCN(Cc3ccco3)C[C@H]21` | 15.09 | -1.661 | 4.865 |
| `COc1ccc(-c2ccccc2CCN)c(OC)c1` | 16 | 4.096 | 7.229 |
| `CCc1nnc2n1CCN(Cc1cc(Cl)c3c(c1)OCCO3)C2` | 20.18 | 0.4774 | 10.2 |
| `CCc1cc(N(C)Cc2cc[nH]n2)n2nc(C)c(C)c2n1` | 8.197 | 1.125 | -0.8 |
| `O=C(NCc1ccco1)[C@H]1CC[C@@H]2[C@@H](CCN2Cc2nccs2)O1` | 31.51 | 5.317 | 10.89 |
| `CN(C)CCN1C(=O)CCC12CCN(C(=O)CC1CC1)CC2` | 2.752 | 0.231 | 2.404 |
| `CN(CCO)Cc1nnc(C2CCN(C(=O)CN3CCCC3)CC2)n1C` | 5.208 | 0.9565 | 6.704 |
| `CC(Cn1ccnc1)NC1CCN(Cc2cccc(O)c2)CC1` (configuration not stated) | 7.292 | 5.45 | 8.939 |
| `CCn1c(Cn2cncn2)nnc1C1CCN(C[C@H]2[C@@H]3CNC[C@@H]32)CC1` | 20.51 | 6.926 | 2.41 |
| `Cc1ccc(CN(C(=O)NCc2nnc3n2CCCCC3)C2CC2)o1` | 26.03 | 5.27 | 4.926 |
| `Cc1n[nH]c(C)c1C1COCCN1C(=O)c1ccc(Cl)o1` (configuration not stated) | 10.19 | -1.76 | 2.053 |
| `CN(C)C(=O)CN1CCC2(CC1)C[C@@H](O)[C@H](c1ccccc1)NC2=O` | 14.48 | 1.793 | 0.7605 |
| `Cc1ncccc1OCC(=O)N1CCN[C@H]2CS(=O)(=O)C[C@H]21` | 22.64 | 7.636 | 1.695 |
| `NC(=O)c1cncc(Oc2cccc(CN3CCCC3)c2Cl)n1` | 16.24 | 2.565 | 15.56 |
| `CN(C)C(=O)CN1CC[C@]2(CN(CC3CC3)C[C@H]2c2ccccc2)C1=O` | 1.923 | 4.039 | -1.676 |
| `NC(=O)CSCC(=O)NC1(c2cccc(Br)c2)CC1` | 14.61 | 0.2937 | 6.736 |
| `CCOCCN1CCN(CCOCC(F)(F)F)CC1` | 8.163 | 1.22 | 4.103 |
| `CCOc1ncccc1NC(=O)N1CCN(c2cccc(C)c2C)CC1` | 9.231 | 5.356 | 2.682 |
| `CCS(=O)(=O)c1ncc(CN2CCN(C)CC2)n1CCc1ccccc1` | 6.383 | 3.62 | 5.202 |
| `COc1ccc(CNCc2c(C(C)C)nn(C)c2N(C)C)cn1` | 10.71 | -0.6632 | 8.876 |
| `CCCc1cnc(C)nc1N1CCC(Cc2ccc(CO)cc2)C1` (configuration not stated) | 42.62 | 4.804 | 11.59 |
| `Cc1csc(CN2CCC[C@]3(C[C@H](Oc4ccccn4)CO3)C2)n1` | 15.24 | 2.458 | -2.479 |
| `NC(=O)C1(c2cnccn2)CCCN1Cc1cc2ccccc2o1` (configuration not stated) | 25 | 2.871 | 4.865 |
| `O=C(NCCNc1ncccn1)C1CC(=O)N(Cc2ccccc2)C1` (configuration not stated) | 11.4 | 0.2752 | 1.453 |
| `NC(=O)c1cc2c(nc1-c1ccc3c(c1)OCCO3)CCC2` | 14.17 | 3.776 | -4.831 |
| `Cc1cc(NC(=O)Cc2ccc3c(c2)OCO3)n(C)n1` | 18.68 | 0.7551 | 6.931 |
| `Cc1cc(C(C)NC(=O)Cn2nc(C)c3ccccc3c2=O)c(C)o1` (configuration not stated) | 15.05 | -1.347 | 1.235 |
| `COCC(=O)N1CCN(C(=O)c2cccs2)C[C@H]1C(=O)OC` | 8.333 | 8.525 | 6.931 |
| `O=C(c1ccno1)N1CC[C@@H]2CN(C3CCOCC3)CCO[C@@H]2C1` | 5.941 | 1.504 | 1.508 |
| `O=C(c1[nH]nc2c1CCCC2)N1CCC(OCCN2CCCCC2)C1` (configuration not stated) | 10.17 | 4.398 | 5.366 |
| `CCOc1cccc(CNc2ccccc2C(F)(F)F)c1O` | 2.632 | 2.788 | -7.602 |
| `Cn1cccc1C(=O)N1CC[C@@H]2[C@@H]1CC(=O)N2CC1CCOCC1` | 19.3 | 4.331 | 5.376 |
| `COCCn1cc2c(n1)C(CNS(C)(=O)=O)OCC2` (configuration not stated) | -1.389 | -0.463 | -0.9346 |
| `NC(=O)CSc1ccccc1NCc1nc(C2CC2)no1` | -2 | -5.357 | 0 |
| `CCc1nnc(CNc2ccc(CC(=O)N3CCSCC3)cc2)o1` | 13.33 | -4.822 | -10.23 |
| `O=C(NCC1CCCO1)c1cc(COc2ccccc2F)[nH]n1` (configuration not stated) | 17.14 | 7.681 | 10.2 |
| `CCN(CC)C(=O)[C@@H]1C[C@@H](NC(=O)c2ccn(C(C)(C)C)c2)CN1C` | 0 | 4.181 | 6.329 |
| `COC(=O)c1ccnn1COc1ccc(Cl)cc1` | 3.371 | -1.844 | 0.5181 |
| `CC(C)c1nccn1C1CCCN(C(=O)c2nccnc2N)C1` (configuration not stated) | -2.632 | -1.852 | -0.578 |
| `Cc1cc(CNc2cccc(Cl)c2C)no1` | 13.89 | 2.644 | 4.985 |
| `Cn1ccnc1CN1CCN(Cc2ccccc2C#N)CC1` | 22.73 | 1.532 | 2.273 |
| `CC(C)=Cc1c(-c2ccccc2)ncn1CCN(C)S(C)(=O)=O` | 14.29 | 2.019 | 8.163 |
| `Cc1ccoc1-c1nnc(CN2CCOC(Cn3cccn3)C2)o1` (configuration not stated) | 11.86 | 0.5262 | 5.714 |
| `Cn1cc(C2CCCN2C(=O)Cn2ccc3ccc(Cl)cc32)cn1` (configuration not stated) | 24.14 | -1.95 | 4.712 |
| `Cc1ncsc1C(=O)NCc1cccnc1N(C)CCc1ccccn1` | 8.824 | 5.464 | 3.704 |
| `CC(C)(C)c1nnc(NCc2ccc(F)cc2)o1` | 0.8403 | -2.47 | 1.961 |
| `O=C(c1ccc(N2CCOCC2)cc1)N1CCCC(n2ccnc2)C1` (configuration not stated) | 16.51 | -1.521 | 6.471 |
| `CCc1ncc(C(=O)N(C)Cc2cc(-c3ccncc3)no2)cn1` | 0 | -7.129 | -10.34 |
| `Cc1nn(C)cc1Cn1c(=O)cnc2ccccc21` | 18.18 | 1.397 | 4.848 |
| `CC(C)c1cc(C(=O)NCCN2CCCS2(=O)=O)n[nH]1` | -17.02 | 4.009 | 0.7634 |
| `O=C(c1cccs1)N1CCCn2c(nc(CN3CCCC3)cc2=O)C1` | 11.43 | 7.58 | 7.843 |
| `CC(C)CC(Cc1cccc(Br)c1)C(=O)O` (configuration not stated) | -5.495 | -0.07253 | 1.031 |
| `CN1CCN(CCOc2ccc(NC(=O)c3cnc[nH]3)cc2)CC1` | 5.181 | 4.271 | 2.762 |
| `Cc1csc(C2CCCN(C(=O)c3cnn4ccc(C)nc34)C2)n1` (configuration not stated) | 9.917 | 0.9531 | 4.082 |
| `COCc1cc(N2CCOC(c3ccc(Cl)cc3)C2)ncn1` (configuration not stated) | 36.07 | 6.449 | 10.73 |